Experimental data: paper PMC10453226
Results are given in words; binding and its absence hold for the method and conditions named. Binding seen in cells or lysates may run through a third protein. Some binding calls cover weakened binding; strength is not graded here.

The chains behind the UniProt entries cited, without tags or fusion partners.
UniProt O75475: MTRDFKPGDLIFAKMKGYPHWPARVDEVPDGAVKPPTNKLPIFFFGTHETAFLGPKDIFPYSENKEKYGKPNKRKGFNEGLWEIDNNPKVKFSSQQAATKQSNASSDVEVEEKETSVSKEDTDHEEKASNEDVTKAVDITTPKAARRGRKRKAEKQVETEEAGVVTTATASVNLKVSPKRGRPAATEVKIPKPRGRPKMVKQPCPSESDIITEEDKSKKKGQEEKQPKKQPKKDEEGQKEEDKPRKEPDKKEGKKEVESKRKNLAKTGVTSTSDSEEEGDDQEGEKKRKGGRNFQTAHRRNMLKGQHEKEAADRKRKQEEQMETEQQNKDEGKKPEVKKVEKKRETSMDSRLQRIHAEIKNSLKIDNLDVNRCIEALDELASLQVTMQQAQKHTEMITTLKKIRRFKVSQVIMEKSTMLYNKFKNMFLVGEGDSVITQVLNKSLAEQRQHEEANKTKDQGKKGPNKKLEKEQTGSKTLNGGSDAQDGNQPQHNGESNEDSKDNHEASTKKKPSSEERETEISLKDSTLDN
UniProt P11387: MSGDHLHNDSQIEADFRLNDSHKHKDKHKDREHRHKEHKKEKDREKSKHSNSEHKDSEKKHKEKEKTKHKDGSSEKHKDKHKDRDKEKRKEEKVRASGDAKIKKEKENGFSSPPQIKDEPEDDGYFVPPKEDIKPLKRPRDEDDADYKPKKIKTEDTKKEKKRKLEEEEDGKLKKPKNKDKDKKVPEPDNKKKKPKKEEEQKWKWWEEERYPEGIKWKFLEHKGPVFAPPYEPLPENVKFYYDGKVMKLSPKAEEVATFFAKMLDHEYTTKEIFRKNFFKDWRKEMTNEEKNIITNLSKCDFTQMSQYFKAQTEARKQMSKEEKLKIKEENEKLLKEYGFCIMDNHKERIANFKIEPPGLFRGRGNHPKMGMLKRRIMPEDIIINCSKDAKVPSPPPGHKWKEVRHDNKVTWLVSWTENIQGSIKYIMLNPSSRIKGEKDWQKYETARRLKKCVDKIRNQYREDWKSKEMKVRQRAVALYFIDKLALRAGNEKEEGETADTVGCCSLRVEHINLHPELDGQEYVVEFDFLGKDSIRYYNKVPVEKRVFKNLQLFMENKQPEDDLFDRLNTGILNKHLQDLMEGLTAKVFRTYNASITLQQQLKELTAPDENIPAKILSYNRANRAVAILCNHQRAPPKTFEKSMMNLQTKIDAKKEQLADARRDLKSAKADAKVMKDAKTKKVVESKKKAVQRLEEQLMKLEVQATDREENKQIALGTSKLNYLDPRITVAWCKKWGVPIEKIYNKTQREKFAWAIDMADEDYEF
UniProt P04150: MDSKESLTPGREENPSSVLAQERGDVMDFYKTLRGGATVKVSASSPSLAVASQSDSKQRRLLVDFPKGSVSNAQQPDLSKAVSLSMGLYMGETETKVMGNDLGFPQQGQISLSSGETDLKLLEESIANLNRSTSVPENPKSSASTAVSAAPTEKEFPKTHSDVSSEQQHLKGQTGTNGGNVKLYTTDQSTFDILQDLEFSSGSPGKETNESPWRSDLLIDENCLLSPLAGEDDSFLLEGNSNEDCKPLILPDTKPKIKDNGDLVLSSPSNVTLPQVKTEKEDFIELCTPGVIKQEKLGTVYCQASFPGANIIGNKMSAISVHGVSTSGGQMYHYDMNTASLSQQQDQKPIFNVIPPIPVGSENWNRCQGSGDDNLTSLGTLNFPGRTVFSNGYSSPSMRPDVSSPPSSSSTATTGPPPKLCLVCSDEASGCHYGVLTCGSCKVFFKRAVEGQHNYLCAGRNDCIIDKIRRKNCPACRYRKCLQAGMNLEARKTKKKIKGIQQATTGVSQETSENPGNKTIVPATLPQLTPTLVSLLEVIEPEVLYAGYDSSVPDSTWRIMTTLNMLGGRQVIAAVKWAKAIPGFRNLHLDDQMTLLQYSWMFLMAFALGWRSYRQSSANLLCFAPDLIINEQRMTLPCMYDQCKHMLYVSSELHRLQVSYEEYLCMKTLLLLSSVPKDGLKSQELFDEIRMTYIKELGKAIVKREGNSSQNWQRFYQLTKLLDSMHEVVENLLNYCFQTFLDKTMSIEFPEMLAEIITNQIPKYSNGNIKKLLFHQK

Target: Lens epithelium-derived growth factor p75 (human (endogenous in PC3-DR, DU145-DR, 22Rv1-DR)) (UniProt O75475)
Assay: co-IP; endogenous LEDGF/p75 precipitated from whole cell lysates (500 μg soluble protein, non-denaturing lysis buffer) of PC3-DR, DU145-DR and 22Rv1-DR cells with human anti-LEDGF/p75 autoantibodies (1:100) and protein A/G Sepharose, overnight at 4 °C; normal human serum as negative control; cells grown in normal medium with glucocorticoids; in DU145-DR also with and without DNase I treatment of the lysate (15 min); detection by immunoblot

| Substance | binding |
| --- | --- |
| DNA topoisomerase I (from UniProt P11387 1-765) | no binding |
| Glucocorticoid receptor (from UniProt P04150 1-777) | binds |
